Data as given in article PMC8764063.
Results are given in words; binding and its absence hold for the method and conditions named. Binding seen in cells or lysates may run through a third protein. Some binding calls cover weakened binding; strength is not graded here. For some assays here: Tags and fused reporters may be left off the sequences shown.

By UniProt entry, the sequences of proteins in these tests, tags left out. Where a name states a change or a piece, a line headed by the entry shows the natural chain unless it says otherwise. Chains listed by the source or under a name are the forms on record and can include a tag or linker.
HA-tagged mutant tPARP1 (HA-mtPARP1, tPARP1 E988A) (P09874, form named): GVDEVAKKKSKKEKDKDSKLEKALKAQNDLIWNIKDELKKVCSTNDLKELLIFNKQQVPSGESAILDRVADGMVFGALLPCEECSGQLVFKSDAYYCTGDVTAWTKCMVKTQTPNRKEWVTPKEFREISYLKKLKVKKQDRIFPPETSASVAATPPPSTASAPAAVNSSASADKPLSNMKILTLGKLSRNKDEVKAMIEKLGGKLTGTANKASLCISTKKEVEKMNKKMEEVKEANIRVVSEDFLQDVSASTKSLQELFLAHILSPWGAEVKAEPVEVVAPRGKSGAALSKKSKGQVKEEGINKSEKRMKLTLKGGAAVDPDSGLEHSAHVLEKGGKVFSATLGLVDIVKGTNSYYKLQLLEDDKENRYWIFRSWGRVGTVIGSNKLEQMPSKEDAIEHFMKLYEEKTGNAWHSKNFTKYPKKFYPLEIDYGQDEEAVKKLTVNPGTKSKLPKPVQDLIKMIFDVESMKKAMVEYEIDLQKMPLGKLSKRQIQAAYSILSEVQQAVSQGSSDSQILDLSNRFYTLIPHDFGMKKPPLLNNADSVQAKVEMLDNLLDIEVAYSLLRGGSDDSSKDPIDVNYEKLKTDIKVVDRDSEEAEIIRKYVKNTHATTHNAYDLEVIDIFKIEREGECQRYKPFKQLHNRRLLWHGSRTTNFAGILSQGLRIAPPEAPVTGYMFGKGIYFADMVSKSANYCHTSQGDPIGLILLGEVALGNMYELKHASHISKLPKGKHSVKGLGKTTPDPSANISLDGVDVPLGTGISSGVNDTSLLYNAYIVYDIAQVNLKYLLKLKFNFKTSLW
UniProt Q9Y530: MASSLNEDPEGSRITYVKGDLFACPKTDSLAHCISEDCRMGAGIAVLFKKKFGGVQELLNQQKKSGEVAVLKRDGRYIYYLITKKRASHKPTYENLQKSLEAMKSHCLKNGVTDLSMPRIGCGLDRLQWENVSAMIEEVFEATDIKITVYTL
HA-tagged mutant TARG1 (HA-mTARG1) (Q9Y530, form named): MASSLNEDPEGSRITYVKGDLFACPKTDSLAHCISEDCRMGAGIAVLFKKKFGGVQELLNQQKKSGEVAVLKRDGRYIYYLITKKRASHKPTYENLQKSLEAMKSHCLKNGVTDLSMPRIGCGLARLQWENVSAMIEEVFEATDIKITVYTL
UniProt Q9H1D9: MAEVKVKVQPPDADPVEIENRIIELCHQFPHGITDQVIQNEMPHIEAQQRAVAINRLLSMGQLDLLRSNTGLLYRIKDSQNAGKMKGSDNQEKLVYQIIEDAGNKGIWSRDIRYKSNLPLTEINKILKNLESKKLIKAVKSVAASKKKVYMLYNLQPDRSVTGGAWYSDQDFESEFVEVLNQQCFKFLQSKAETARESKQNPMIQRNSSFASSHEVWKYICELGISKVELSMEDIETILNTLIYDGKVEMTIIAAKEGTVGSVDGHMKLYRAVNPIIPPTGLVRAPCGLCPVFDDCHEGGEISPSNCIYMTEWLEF

Legend:
[1] = biological target: HA-tagged mutant tPARP1 (HA-mtPARP1, tPARP1 E988A) (human) (UniProt P09874); assay: co-IP; myc-tagged Pol III subunit and HA-tagged protein co-transfected in U2OS-PARP1 knockout cells; NETN100 lysate, antibody and beads 2 h at 4 °C; western blotting
[2] = biological target: HA-tagged mutant TARG1 (HA-mTARG1) (UniProt Q9Y530); assay: as above
FLAG-POLR3F (human) = FLAG-POLR3F (human) (UniProt Q9H1D9); assay: co-IP; Pol III complex purified by FLAG IP from U2OS cells stably expressing FLAG-POLR3F, with or without ADP-ribosylation by tPARP1 in vitro; subunits detected by Western blot with antibodies against the individual subunits; IgG as control IP
[3] = biological target: POLR3F (human (endogenous in U2OS)) (UniProt Q9H1D9); assay: co-IP; IP of POLR3F from the cytoplasmic fraction of U2OS cells treated with or without poly(dA-dT) (5 ug/ml, six hours); subunits detected by immunoblot

Molecule: myc-POLR3F (from UniProt Q9H1D9 1-316)
- binding [1]: binds
- binding [2]: binds

B1: POLR3B (protein, UniProt Q9NW08 1-1133)
chain: MDVLAEEFGNLTPEQLAAPIPTVEEKWRLLPAFLKVKGLVKQHIDSFNYFINVEIKKIMKANEKVTSDADPMWYLKYLNIYVGLPDVEESFNVTRPVSPHECRLRDMTYSAPITVDIEYTRGSQRIIRNALPIGRMPIMLRSSNCVLTGKTPAEFAKLNECPLDPGGYFIVKGVEKVILIQEQLSKNRIIVEADRKGAVGASVTSSTHEKKSRTNMAVKQGRFYLRHNTLSEDIPIVIIFKAMGVESDQEIVQMIGTEEHVMAAFGPSLEECQKAQIFTQMQALKYIGNKVRRQRMWGGGPKKTKIEEARELLASTILTHVPVKEFNFRAKCIYTAVMVRRVILAQGDNKVDDRDYYGNKRLELAGQLLSLLFEDLFKKFNSEMKKIADQVIPKQRAAQFDVVKHMRQDQITNGMVNAISTGNWSLKRFKMDRQGVTQVLSRLSYISALGMMTRISSQFEKTRKVSGPRSLQPSQWGMLCPSDTPEGEACGLVKNLALMTHITTDMEDGPIVKLASNLGVEDVNLLCGEELSYPNVFLVFLNGNILGVIRDHKKLVNTFRLMRRAGYINEFVSISTNLTDRCVYISSDGGRLCRPYIIVKKQKPAVTNKHMEELAQGYRNFEDFLHESLVEYLDVNEENDCNIALYEHTINKDTTHLEIEPFTLLGVCAGLIPYPHHNQSPRNTYQCAMGKQAMGTIGYNQRNRIDTLMYLLAYPQKPMVKTKTIELIEFEKLPAGQNATVAVMSYSGYDIEDALVLNKASLDRGFGRCLVYKNAKCTLKRYTNQTFDKVMGPMLDAATRKPIWRHEILDADGICSPGEKVENKQVLVNKSMPTVTQIPLEGSNVPQQPQYKDVPITYKGATDSYIEKVMISSNAEDAFLIKMLLRQTRRPEIGDKFSSRHGQKGVCGLIVPQEDMPFCDSGICPDIIMNPHGFPSRMTVGKLIELLAGKAGVLDGRFHYGTAFGGSKVKDVCEDLVRHGYNYLGKDYVTSGITGEPLEAYIYFGPVYYQKLKHMVLDKMHARARGPRAVLTRQPTEGRSRDGGLRLGEMERDCLIGYGASMLLLERLMISSDAFEVDVCGQCGLLGYSGWCHYCKSSCHVSSLRIPYACKLLFQELQSMNIIPRLKLSKYNE
- binding (FLAG-POLR3F (human)): binds
- binding [3]: binds

B2: POLR3D (protein, UniProt P05423 1-398)
chain: MSEGNAAGEPSTPGGPRPLLTGARGLIGRRPAPPLTPGRLPSIRSRDLTLGGVKKKTFTPNIISRKIKEEPKEEVTVKKEKRERDRDRQREGHGRGRGRPEVIQSHSIFEQGPAEMMKKKGNWDKTVDVSDMGPSHIINIKKEKRETDEETKQILRMLEKDDFLDDPGLRNDTRNMPVQLPLAHSGWLFKEENDEPDVKPWLAGPKEEDMEVDIPAVKVKEEPRDEEEEAKMKAPPKAARKTPGLPKDVSVAELLRELSLTKEEELLFLQLPDTLPGQPPTQDIKPIKTEVQGEDGQVVLIKQEKDREAKLAENACTLADLTEGQVGKLLIRKSGRVQLLLGKVTLDVTMGTACSFLQELVSVGLGDSRTGEMTVLGHVKHKLVCSPDFESLLDHKHR
- binding (FLAG-POLR3F (human)): binds
- binding [3]: binds

B3: POLR3E (protein, UniProt Q9NVU0 1-708)
chain: MANEEDDPVVQEIDVYLAKSLAEKLYLFQYPVRPASMTYDDIPHLSAKIKPKQQKVELEMAIDTLNPNYCRSKGEQIALNVDGACADETSTYSSKLMDKQTFCSSQTTSNTSRYAAALYRQGELHLTPLHGILQLRPSFSYLDKADAKHREREAANEAGDSSQDEAEDDVKQITVRFSRPESEQARQRRVQSYEFLQKKHAEEPWVHLHYYGLRDSRSEHERQYLLCPGSSGVENTELVKSPSEYLMMLMPPSQEEEKDKPVAPSNVLSMAQLRTLPLADQIKILMKNVKVMPFANLMSLLGPSIDSVAVLRGIQKVAMLVQGNWVVKSDILYPKDSSSPHSGVPAEVLCRGRDFVMWKFTQSRWVVRKEVATVTKLCAEDVKDFLEHMAVVRINKGWEFILPYDGEFIKKHPDVVQRQHMLWTGIQAKLEKVYNLVKETMPKKPDAQSGPAGLVCGDQRIQVAKTKAQQNHALLERELQRRKEQLRVPAVPPGVRIKEEPVSEEGEEDEEQEAEEEPMDTSPSGLHSKLANGLPLGRAAGTDSFNGHPPQGCASTPVARELKAFVEATFQRQFVLTLSELKRLFNLHLASLPPGHTLFSGISDRMLQDTVLAAGCKQILVPFPPQTAASPDEQKVFALWESGDMSDQHRQVLLEIFSKNYRVRRNMIQSRLTQECGEDLSKQEVDKVLKDCCVSYGGMWYLKGTVQS
- binding (FLAG-POLR3F (human)): binds
- binding [3]: binds

B4: POLR3H (protein, UniProt Q9Y535 1-204)
chain: MFVLVEMVDTVRIPPWQFERKLNDSIAEELNKKLANKVVYNVGLCICLFDITKLEDAYVFPGDGASHTKVHFRCVVFHPFLDEILIGKIKGCSPEGVHVSLGFFDDILIPPESLQQPAKFDEAEQVWVWEYETEEGAHDLYMDTGEEIRFRVVDESFVDTSPTGPSSADATTSSEELPKKEAPYTLVGSISEPGLGLLSWWTSN
- binding (FLAG-POLR3F (human)): binds
- binding [3]: binds

B5: myc-POLR3A (protein, UniProt O14802 1-1390)
chain: MVKEQFRETDVAKKISHICFGMKSPEEMRQQAHIQVVSKNLYSQDNQHAPLLYGVLDHRMGTSEKDRPCETCGKNLADCLGHYGYIDLELPCFHVGYFRAVIGILQMICKTCCHIMLSQEEKKQFLDYLKRPGLTYLQKRGLKKKISDKCRKKNICHHCGAFNGTVKKCGLLKIIHEKYKTNKKVVDPIVSNFLQSFETAIEHNKEVEPLLGRAQENLNPLVVLNLFKRIPAEDVPLLLMNPEAGKPSDLILTRLLVPPLCIRPSVVSDLKSGTNEDDLTMKLTEIIFLNDVIKKHRISGAKTQMIMEDWDFLQLQCALYINSELSGIPLNMAPKKWTRGFVQRLKGKQGRFRGNLSGKRVDFSGRTVISPDPNLRIDEVAVPVHVAKILTFPEKVNKANINFLRKLVQNGPEVHPGANFIQQRHTQMKRFLKYGNREKMAQELKYGDIVERHLIDGDVVLFNRQPSLHKLSIMAHLARVKPHRTFRFNECVCTPYNADFDGDEMNLHLPQTEEAKAEALVLMGTKANLVTPRNGEPLIAAIQDFLTGAYLLTLKDTFFDRAKACQIIASILVGKDEKIKVRLPPPTILKPVTLWTGKQIFSVILRPSDDNPVRANLRTKGKQYCGKGEDLCANDSYVTIQNSELMSGSMDKGTLGSGSKNNIFYILLRDWGQNEAADAMSRLARLAPVYLSNRGFSIGIGDVTPGQGLLKAKYELLNAGYKKCDEYIEALNTGKLQQQPGCTAEETLEALILKELSVIRDHAGSACLRELDKSNSPLTMALCGSKGSFINISQMIACVGQQAISGSRVPDGFENRSLPHFEKHSKLPAAKGFVANSFYSGLTPTEFFFHTMAGREGLVDTAVKTAETGYMQRRLVKSLEDLCSQYDLTVRSSTGDIIQFIYGGDGLDPAAMEGKDEPLEFKRVLDNIKAVFPCPSEPALSKNELILTTESIMKKSEFLCCQDSFLQEIKKFIKGVSEKIKKTRDKYGINDNGTTEPRVLYQLDRITPTQVEKFLETCRDKYMRAQMEPGSAVGALCAQSIGEPGTQMTLKTFHFAGVASMNITLGVPRIKEIINASKAISTPIITAQLDKDDDADYARLVKGRIEKTLLGEISEYIEEVFLPDDCFILVKLSLERIRLLRLEVNAETVRYSICTSKLRVKPGDVAVHGEAVVCVTPRENSKSSMYYVLQFLKEDLPKVVVQGIPEVSRAVIHIDEQSGKEKYKLLVEGDNLRAVMATHGVKGTRTTSNNTYEVEKTLGIEAARTTIINEIQYTMVNHGMSIDRRHVMLLSDLMTYKGEVLGITRFGLAKMKESVLMLASFEKTADHLFDAAYFGQKDSVCGVSECIIMGIPMNIGTGLFKLLHKADRDPNPPKRPLIFDTNEFHIPLVT
- binding [1]: binds
- binding [2]: binds

B6: myc-POLR3B (protein, UniProt Q9NW08 1-1133)
chain: B1 chain
- binding [1]: binds
- binding [2]: binds
